Measurements from publication PMC4703885.

Biological target: T1, EGFP-tagged RepoMan-WT (UniProt Q69YH5)
T1 sequence: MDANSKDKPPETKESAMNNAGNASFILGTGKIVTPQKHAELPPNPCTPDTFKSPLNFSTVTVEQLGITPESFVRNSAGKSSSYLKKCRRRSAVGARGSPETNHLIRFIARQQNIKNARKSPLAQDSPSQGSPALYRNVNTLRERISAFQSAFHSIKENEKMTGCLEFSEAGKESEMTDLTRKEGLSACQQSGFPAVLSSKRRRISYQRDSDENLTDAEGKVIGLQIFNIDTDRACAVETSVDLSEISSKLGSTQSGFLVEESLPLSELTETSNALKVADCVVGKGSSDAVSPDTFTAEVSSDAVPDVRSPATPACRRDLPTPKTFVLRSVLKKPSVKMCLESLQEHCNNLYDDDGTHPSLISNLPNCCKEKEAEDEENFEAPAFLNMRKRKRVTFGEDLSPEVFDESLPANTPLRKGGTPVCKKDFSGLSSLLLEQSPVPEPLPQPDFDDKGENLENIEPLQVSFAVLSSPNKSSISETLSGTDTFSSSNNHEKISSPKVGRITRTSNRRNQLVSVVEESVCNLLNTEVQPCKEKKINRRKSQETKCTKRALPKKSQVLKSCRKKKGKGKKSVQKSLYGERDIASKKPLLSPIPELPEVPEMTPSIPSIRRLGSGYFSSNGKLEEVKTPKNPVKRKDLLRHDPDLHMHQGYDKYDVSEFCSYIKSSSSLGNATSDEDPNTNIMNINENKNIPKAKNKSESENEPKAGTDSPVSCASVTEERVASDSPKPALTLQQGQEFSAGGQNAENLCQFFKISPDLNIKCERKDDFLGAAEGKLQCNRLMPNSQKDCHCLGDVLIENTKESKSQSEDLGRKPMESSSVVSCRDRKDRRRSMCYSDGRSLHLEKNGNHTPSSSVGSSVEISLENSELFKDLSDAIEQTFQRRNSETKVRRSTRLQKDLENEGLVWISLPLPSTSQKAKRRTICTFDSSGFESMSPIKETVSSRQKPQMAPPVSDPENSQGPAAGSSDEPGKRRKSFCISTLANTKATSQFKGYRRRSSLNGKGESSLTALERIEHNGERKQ
Test: co-IP; EGFP traps of EGFP-RepoMan fusions from lysates of transfected HEK293T cells (non-synchronized in Fig. 3f,j; Nocodazole-arrested in Fig. 2d); immunoblot

## Cyclin B (endogenous) (human (endogenous in HEK293T))
  binding: binds

Results are given in words; binding and its absence hold for the method and conditions named. In cells and extracts the contact can be indirect. Binding can be weak; no strength is given. Where a sequence is shown, tags or fusion partners need not be part of it.
